{"source": "patent US9511045B2", "about": "“Use of riluzole for treating or preventing the adverse effects of antineoplastic agents” (UNIVERSITE D'AUVERGNE CLERMONT I, priority 2010, dated 2016)", "test_system": "Male Sprague-Dawley rats", "details": "for statistical data analysis of reaction times versus control: FIG. 1, FIG. 2", "experimental": "Male Sprague-Dawley rats (Charles River Lab, France), weighing 175 to 200 grams, were placed in a cage with food and water ad libitum, in a temperature-controlled environment at 22° C. with a 12 h/12 h day/night cycle. The experiments were conducted under blind conditions in a calm room by the same experimenter, while taking care to comply with the regulations on animal experimentation.\nThis low-temperature immersion test made it possible to measure the hypersensitivity to cold in the animals. The bottom third of the rat's tail was immersed in a temperature-controlled bath 10° C. until it was removed or until the “cut-off” set at 30 seconds (Necker and Hellon. 1978 Pain. 4: 231-242).\nThe experimental data was analyzed using the software program Sigma STAT, version 3.0 for Windows (STAT32 Software Inc., San Diego, Calif.). The kinetics of the reaction times to the temperature-based stimulation were analyzed using a two-factor variance analysis followed by a multiple comparison test to study the change over time. […] The significance threshold was P<0.05.", "note": "Entries after “also recorded” stand apart in the source; their conditions may differ. Like-named read-outs stand apart in the source and are kept apart here."}
{"smiles": "Nc1nc2ccc(OC(F)(F)F)cc2s1", "note": "[riluzole, 2-amino-6-trifluoro-methoxy-benzothiazole]", "values": [{"measurement": "reaction time to cold compared with that observed before injection of oxaliplatin", "setting": "oxaliplatin animals treated with riluzole", "result": "higher reaction time to cold (less sensitivity)"}, {"measurement": "effect on oxaliplatin-induced cold hypersensitivity", "setting": "rat animal model", "result": "capable of correcting hypersensitivity to cold; also recorded: corrected the oxaliplatin-induced cold hypersensitivity"}, {"measurement": "statistical data analysis of reaction times versus control", "setting": "riluzole 5 mg/kg, p<0.05", "result": "significant differences"}, {"measurement": "reaction times of the rat treated with oxaliplatin after injection of riluzole", "setting": "riluzole 5 mg/kg, tail immersion 10° C., 15-120 minutes after injection, FIG. 1", "result": "considerably higher"}, {"measurement": "statistical data analysis of reaction times versus control", "setting": "riluzole 7.5 mg/kg, p<0.001", "result": "significant differences"}]}
